Test results published in patent US6258583.
The exact form of at least one protein or probe is not confirmed.

Test system: Hpy188I restriction endonuclease (Helicobacter pylori J188)
Assay: enzyme reaction in vitro
Settings: cleaves between N and G on both strands giving one base 3' extension; 37 C, 30 min, Mg2+; purified native protein; label: 33P primer extension product; only the motif is given

For “TCGGA (double strand) [M13mp18 Hpy188I site at position 1353 (N is G)]”, the “activity on this sequence” value was “active”.
